Experimental data: the supplement of paper PMC12823440, “Inhibitors supercharge kinase turnover through native proteolytic circuits” (Nature, 2025)
Structures can show the parent of a compound that is named as a salt. This is one part of the list. The calls rarely recur for the same compound in another form.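 Kinases, fused to nanoluciferase, were expressed in K562 cells; luminescence was measured every 4 h from 2 to 18 h as percent of control (DMSO = 100%, positive control = 0%). A time point is decreased if signal falls significantly (2 sigma). Hits were called by the authors by a rule that is not shown; the count of time points alone does not decide it.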

Amino acid sequences for entries named in this document (tags omitted). A change or cut given only in a name is not applied to a line headed by its entry.
UniProt P50613: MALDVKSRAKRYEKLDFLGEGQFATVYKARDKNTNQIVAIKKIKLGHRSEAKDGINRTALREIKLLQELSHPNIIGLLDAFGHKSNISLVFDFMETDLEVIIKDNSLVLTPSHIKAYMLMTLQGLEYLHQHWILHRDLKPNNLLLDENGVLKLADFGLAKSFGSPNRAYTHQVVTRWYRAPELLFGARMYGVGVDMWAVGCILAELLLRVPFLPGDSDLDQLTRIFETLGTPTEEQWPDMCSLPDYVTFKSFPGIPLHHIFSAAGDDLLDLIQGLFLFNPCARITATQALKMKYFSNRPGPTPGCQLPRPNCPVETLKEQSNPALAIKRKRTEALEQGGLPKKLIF
UniProt P50750, whole entry: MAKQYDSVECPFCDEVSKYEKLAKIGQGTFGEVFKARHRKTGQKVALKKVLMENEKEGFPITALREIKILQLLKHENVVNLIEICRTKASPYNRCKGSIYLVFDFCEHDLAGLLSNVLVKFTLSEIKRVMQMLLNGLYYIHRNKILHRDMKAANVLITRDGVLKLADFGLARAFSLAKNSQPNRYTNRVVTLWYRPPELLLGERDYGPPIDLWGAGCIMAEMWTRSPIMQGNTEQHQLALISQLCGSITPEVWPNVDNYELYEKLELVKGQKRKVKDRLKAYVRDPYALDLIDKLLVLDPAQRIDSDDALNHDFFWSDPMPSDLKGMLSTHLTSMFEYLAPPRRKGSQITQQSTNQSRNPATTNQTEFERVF
UniProt O96017, whole entry: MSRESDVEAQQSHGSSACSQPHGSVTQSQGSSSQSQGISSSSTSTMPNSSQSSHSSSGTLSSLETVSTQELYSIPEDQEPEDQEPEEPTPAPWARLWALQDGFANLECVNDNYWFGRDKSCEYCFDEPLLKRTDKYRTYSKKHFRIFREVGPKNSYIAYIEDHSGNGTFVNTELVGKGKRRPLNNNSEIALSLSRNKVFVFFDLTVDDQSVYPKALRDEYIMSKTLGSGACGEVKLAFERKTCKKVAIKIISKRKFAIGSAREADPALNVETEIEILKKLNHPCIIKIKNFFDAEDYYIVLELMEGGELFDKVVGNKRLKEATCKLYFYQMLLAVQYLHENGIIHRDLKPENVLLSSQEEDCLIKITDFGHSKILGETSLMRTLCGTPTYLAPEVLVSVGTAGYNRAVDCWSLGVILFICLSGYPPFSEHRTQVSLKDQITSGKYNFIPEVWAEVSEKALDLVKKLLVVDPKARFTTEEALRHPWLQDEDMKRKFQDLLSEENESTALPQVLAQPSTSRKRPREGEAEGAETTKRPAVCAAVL
UniProt P07333, whole entry: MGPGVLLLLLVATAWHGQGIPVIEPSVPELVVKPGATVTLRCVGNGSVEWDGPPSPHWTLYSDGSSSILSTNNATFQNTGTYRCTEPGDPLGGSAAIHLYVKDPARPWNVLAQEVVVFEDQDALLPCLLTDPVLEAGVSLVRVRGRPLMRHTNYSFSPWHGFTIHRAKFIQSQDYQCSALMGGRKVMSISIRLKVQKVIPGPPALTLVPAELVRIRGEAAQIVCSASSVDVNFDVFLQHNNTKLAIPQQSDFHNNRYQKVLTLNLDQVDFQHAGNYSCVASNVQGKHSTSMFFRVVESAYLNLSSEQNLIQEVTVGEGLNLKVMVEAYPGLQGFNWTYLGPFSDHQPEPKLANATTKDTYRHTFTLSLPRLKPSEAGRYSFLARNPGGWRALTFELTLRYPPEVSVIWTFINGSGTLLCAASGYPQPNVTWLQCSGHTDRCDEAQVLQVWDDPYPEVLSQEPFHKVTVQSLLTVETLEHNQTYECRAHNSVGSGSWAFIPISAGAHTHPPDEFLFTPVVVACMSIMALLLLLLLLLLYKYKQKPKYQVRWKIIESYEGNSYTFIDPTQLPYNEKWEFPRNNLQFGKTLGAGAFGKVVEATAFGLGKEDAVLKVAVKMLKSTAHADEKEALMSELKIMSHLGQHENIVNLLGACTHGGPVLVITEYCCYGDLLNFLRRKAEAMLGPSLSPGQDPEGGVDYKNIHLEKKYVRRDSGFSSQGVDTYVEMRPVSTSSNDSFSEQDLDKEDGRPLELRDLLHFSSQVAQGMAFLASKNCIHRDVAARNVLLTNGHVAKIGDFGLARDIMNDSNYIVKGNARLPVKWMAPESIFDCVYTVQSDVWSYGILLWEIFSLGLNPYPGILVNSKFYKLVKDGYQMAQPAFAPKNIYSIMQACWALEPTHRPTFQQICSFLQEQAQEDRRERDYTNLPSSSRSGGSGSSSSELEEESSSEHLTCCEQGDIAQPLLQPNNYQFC
UniProt P41240: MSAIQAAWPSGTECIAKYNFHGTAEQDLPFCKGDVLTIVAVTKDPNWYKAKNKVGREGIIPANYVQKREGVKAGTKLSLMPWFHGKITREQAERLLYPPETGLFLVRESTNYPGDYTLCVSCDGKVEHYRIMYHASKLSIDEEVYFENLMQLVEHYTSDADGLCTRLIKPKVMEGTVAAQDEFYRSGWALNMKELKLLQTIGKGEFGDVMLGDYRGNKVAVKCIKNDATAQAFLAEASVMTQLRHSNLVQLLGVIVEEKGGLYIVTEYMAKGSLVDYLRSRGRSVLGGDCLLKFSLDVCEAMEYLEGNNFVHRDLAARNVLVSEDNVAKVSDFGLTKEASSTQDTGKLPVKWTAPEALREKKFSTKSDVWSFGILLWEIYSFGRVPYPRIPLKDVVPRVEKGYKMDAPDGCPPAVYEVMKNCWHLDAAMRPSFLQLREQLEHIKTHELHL
UniProt P48729: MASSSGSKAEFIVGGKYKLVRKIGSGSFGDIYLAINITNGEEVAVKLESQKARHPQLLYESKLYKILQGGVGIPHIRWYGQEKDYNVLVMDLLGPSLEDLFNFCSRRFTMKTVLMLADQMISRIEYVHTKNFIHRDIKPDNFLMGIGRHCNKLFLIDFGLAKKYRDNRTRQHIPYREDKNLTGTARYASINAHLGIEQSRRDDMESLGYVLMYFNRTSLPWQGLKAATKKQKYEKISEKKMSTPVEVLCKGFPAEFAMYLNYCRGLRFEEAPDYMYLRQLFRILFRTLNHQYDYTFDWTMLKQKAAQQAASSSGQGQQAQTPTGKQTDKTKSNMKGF
UniProt P48730: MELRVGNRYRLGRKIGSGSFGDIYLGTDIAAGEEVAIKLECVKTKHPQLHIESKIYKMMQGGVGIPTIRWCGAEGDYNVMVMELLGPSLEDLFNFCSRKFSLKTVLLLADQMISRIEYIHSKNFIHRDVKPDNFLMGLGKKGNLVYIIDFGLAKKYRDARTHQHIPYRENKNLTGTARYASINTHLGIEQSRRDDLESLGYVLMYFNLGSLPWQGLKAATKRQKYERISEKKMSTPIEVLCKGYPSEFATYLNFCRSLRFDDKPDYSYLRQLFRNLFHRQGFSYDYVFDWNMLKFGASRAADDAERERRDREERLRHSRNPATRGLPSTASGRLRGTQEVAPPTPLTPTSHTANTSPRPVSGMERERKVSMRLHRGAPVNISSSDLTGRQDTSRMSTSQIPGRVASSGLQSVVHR
UniProt Q08345: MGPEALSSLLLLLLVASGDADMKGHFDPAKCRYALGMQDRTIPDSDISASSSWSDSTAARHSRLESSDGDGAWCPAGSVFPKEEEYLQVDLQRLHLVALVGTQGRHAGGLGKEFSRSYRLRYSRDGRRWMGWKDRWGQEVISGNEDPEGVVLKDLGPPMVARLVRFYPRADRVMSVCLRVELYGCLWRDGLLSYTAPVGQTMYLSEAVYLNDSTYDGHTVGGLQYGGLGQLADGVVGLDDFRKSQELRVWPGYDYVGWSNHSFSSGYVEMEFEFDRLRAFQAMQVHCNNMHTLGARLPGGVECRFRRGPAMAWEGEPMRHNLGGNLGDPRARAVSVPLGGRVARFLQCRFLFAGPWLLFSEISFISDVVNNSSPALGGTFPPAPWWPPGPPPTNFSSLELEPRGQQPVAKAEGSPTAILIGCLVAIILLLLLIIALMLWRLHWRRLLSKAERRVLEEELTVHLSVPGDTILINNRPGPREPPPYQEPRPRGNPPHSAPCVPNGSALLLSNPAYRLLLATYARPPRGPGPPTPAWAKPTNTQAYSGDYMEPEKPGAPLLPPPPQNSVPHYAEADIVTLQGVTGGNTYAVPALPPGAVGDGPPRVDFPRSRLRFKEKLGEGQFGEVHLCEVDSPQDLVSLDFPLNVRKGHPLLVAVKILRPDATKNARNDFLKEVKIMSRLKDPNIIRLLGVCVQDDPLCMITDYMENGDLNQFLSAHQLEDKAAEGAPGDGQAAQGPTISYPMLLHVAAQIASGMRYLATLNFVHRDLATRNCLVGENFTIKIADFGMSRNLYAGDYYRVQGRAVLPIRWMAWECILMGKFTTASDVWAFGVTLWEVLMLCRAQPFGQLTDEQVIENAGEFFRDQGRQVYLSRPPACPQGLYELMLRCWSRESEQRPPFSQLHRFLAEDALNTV
UniProt Q9Y463, whole entry, looked up: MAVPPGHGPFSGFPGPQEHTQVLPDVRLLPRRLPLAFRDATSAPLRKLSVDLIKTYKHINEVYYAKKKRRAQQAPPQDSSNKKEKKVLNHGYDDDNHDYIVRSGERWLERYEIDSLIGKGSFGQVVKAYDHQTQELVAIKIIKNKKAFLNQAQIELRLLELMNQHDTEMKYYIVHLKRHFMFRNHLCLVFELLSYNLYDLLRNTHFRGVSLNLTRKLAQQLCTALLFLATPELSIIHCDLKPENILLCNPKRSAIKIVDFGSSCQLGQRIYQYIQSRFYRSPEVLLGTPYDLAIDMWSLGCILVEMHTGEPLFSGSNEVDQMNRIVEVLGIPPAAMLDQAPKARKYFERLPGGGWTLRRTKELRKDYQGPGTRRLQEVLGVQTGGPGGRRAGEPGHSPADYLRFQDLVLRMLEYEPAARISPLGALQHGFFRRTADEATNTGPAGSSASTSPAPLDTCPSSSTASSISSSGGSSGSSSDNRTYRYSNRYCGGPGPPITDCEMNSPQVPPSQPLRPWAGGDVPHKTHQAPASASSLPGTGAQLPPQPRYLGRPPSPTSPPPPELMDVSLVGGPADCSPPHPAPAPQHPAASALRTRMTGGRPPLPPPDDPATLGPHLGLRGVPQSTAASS
UniProt Q92630: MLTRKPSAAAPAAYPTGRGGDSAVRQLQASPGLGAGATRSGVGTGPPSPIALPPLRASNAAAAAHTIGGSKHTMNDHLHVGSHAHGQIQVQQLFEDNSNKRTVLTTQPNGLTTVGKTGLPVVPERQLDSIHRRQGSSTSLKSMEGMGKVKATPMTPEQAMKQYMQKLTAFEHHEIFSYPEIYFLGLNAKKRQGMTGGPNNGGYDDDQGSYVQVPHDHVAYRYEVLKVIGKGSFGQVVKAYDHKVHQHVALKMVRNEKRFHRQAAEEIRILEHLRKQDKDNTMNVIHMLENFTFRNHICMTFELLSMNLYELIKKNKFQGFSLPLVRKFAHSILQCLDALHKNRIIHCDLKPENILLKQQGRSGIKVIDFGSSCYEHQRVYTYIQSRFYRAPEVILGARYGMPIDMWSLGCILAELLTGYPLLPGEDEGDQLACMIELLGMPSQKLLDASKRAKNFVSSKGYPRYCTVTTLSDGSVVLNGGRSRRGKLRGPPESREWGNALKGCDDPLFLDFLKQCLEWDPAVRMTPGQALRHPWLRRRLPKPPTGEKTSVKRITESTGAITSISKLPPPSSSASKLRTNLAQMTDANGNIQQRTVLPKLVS

What was measured:
Assay in all cases: kinase-Nluc reporter destabilization hit call (1 = scored as downregulated) (binary); higher = compound decreases kinase abundance
Details in all cases: K562, 2-18 h
CDK7 = CDK7 (UniProt P50613)
CDK9 = CDK9 (UniProt P50750)
CHEK2 = CHEK2 (UniProt O96017)
CSF1R = CSF1R (UniProt P07333)
CSK = CSK (UniProt P41240)
CSNK1A1 = CSNK1A1 (UniProt P48729)
CSNK1D = CSNK1D (UniProt P48730)
DDR1 = DDR1 (UniProt Q08345)
DYRK1B = DYRK1B (UniProt Q9Y463)
DYRK2 = DYRK2 (UniProt Q92630)

Measured: kinase-Nluc reporter destabilization hit call

CN(C)C(=N)NC(=N)N [Metformin]
inactive: CDK7; 10 µM 0 | CDK9; 10 µM 0 | CHEK2; 10 µM 0 | CSF1R; 10 µM 0 | CSK; 10 µM 0 | CSNK1A1; 10 µM 0 | CSNK1D; 10 µM 0 | DDR1; 10 µM 0 | DYRK1B; 10 µM 0 | DYRK2; 10 µM 0

N#CCC1(n2cc(-c3ncnc4[nH]ccc34)cn2)CN(C2CCN(C(=O)c3ccnc(C(F)(F)F)c3F)CC2)C1 [Itacitinib adipate]
inactive: CDK7; 10 µM 0 | CDK9; 10 µM 0 | CHEK2; 10 µM 0 | CSF1R; 10 µM 0 | CSK; 10 µM 0 | CSNK1A1; 10 µM 0 | CSNK1D; 10 µM 0 | DDR1; 10 µM 0 | DYRK1B; 10 µM 0 | DYRK2; 10 µM 0

CC(C)(C)n1nc(-c2cccc3ccccc23)c2c(N)ncnc21 [1-Naphthyl PP1]
inactive: CDK7; 10 µM 0 | CDK9; 10 µM 0 | CHEK2; 10 µM 0 | CSF1R; 10 µM 0 | CSK; 10 µM 0 | CSNK1A1; 10 µM 0 | DDR1; 10 µM 0 | DYRK1B; 10 µM 0 | DYRK2; 10 µM 0

CN1CCCN(C(=O)c2cccc(-c3ccc(/C=C4/C(=O)Nc5ccc(Cl)cc54)o3)c2)CC1
inactive: CDK7; 2.5 µM 0 | CDK9; 2.5 µM 0 | CHEK2; 2.5 µM 0 | CSF1R; 2.5 µM 0 | CSK; 2.5 µM 0 | CSNK1A1; 2.5 µM 0 | CSNK1D; 2.5 µM 0 | DDR1; 2.5 µM 0 | DYRK1B; 2.5 µM 0 | DYRK2; 2.5 µM 0

COc1ccc2c(c1)C(c1ccc(F)cc1)=C(CN1CCCC1)CO2
inactive: CDK7; 10 µM 0 | CDK9; 10 µM 0 | CHEK2; 10 µM 0 | CSF1R; 10 µM 0 | CSK; 10 µM 0 | CSNK1A1; 10 µM 0 | CSNK1D; 10 µM 0 | DDR1; 10 µM 0 | DYRK1B; 10 µM 0 | DYRK2; 10 µM 0

CC(C)Nc1cc(-c2c[nH]c(C(=O)N[C@H](CO)c3cccc(Cl)c3)c2)c(Cl)cn1 [Ulixertinib (hydrochloride)]
inactive: CDK7; 10 µM 0 | CDK9; 10 µM 0 | CHEK2; 10 µM 0 | CSF1R; 10 µM 0 | CSK; 10 µM 0 | CSNK1A1; 10 µM 0 | CSNK1D; 10 µM 0 | DDR1; 10 µM 0 | DYRK1B; 10 µM 0 | DYRK2; 10 µM 0
